From the supplement of paper PMC10849652
Some of the results follow.

The chains behind the UniProt entries cited, without tags or fusion partners. Where a name states a change or a piece, a line headed by the entry shows the natural chain unless it says otherwise.
UniProt Q5VYS8: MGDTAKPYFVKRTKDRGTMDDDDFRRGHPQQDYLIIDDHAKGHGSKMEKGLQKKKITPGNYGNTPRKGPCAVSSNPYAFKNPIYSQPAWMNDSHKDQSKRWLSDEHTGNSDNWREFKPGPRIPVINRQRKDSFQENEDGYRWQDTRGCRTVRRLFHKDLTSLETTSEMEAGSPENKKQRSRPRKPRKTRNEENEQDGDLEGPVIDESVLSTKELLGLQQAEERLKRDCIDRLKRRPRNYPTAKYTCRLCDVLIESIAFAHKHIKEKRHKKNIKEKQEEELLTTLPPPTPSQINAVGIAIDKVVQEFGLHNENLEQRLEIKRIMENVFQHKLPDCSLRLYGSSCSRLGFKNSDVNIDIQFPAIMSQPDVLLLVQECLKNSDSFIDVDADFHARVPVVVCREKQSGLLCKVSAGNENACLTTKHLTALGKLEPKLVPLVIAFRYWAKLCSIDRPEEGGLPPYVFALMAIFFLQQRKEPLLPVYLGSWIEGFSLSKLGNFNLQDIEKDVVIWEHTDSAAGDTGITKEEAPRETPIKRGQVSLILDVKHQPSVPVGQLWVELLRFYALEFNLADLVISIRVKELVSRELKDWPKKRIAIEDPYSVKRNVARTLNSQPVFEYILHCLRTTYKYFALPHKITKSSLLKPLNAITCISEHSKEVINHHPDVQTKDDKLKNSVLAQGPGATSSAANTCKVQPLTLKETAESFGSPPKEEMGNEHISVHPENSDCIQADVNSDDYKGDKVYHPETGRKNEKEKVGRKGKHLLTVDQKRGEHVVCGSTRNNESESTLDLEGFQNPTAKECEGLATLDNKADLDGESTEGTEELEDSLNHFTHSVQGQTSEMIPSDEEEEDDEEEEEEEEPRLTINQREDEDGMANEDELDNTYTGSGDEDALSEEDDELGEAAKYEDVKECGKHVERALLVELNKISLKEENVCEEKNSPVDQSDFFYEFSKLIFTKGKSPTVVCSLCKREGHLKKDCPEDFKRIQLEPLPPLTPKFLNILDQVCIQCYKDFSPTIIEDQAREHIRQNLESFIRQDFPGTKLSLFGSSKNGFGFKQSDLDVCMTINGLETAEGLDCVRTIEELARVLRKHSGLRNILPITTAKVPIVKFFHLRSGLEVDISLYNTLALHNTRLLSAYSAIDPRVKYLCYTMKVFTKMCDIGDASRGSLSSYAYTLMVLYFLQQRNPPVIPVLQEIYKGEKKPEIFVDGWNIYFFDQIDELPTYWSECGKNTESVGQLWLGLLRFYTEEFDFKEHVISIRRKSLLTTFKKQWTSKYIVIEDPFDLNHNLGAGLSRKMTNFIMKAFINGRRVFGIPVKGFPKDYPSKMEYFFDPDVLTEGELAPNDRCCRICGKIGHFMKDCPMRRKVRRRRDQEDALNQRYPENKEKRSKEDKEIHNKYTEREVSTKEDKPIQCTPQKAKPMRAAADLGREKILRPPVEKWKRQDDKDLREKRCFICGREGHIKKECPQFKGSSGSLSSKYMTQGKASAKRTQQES
UniProt Q6IPR3: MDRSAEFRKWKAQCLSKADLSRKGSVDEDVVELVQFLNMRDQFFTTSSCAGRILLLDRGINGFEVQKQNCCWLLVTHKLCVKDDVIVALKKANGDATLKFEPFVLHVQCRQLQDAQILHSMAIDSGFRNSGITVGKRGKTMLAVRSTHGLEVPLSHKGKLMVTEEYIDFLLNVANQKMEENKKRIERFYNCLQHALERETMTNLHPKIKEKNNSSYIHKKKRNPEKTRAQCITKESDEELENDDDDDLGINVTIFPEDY
UniProt P07437, whole entry, looked up: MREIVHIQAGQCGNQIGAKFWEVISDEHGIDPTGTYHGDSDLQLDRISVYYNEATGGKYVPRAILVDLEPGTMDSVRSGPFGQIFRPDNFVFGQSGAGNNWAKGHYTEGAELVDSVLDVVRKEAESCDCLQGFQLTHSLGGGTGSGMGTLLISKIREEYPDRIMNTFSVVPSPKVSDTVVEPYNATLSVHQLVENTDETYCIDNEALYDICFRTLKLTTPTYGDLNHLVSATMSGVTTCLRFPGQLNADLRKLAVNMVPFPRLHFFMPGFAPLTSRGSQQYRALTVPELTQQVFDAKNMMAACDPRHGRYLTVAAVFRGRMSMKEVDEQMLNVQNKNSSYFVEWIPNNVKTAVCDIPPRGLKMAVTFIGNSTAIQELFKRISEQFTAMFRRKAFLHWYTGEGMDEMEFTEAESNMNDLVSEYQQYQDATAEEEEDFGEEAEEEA
UniProt P61081: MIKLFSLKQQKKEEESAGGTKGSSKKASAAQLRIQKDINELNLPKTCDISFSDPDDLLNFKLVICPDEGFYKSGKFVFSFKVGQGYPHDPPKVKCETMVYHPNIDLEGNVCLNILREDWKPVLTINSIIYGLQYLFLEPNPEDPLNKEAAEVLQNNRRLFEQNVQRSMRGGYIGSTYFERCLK
UniProt Q96RT8, whole entry, looked up: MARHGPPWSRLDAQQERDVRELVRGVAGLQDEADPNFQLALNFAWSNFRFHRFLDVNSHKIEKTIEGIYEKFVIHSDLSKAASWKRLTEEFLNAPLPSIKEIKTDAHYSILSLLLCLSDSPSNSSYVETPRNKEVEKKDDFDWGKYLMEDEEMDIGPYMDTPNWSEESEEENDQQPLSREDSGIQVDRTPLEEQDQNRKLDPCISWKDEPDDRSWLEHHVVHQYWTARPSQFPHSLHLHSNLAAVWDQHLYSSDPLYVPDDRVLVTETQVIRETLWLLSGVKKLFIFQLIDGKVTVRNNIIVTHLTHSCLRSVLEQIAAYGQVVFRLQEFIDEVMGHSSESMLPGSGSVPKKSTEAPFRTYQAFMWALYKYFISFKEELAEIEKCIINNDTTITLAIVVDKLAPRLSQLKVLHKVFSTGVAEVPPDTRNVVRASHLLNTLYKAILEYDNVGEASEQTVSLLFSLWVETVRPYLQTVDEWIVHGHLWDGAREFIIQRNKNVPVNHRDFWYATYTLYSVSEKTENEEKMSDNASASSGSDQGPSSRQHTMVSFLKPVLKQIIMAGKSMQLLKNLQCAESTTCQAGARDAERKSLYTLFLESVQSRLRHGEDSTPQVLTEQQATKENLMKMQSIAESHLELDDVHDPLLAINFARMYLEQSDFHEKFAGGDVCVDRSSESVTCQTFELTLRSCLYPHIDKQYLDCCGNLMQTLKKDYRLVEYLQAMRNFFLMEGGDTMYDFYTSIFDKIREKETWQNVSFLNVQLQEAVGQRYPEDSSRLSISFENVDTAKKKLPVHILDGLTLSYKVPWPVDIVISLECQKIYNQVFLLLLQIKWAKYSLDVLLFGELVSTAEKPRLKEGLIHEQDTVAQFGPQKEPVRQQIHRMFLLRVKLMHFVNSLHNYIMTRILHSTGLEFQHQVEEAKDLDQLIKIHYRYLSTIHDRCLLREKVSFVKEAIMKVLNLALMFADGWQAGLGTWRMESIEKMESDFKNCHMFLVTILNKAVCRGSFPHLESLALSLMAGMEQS
UniProt Q9NY65, whole entry, looked up: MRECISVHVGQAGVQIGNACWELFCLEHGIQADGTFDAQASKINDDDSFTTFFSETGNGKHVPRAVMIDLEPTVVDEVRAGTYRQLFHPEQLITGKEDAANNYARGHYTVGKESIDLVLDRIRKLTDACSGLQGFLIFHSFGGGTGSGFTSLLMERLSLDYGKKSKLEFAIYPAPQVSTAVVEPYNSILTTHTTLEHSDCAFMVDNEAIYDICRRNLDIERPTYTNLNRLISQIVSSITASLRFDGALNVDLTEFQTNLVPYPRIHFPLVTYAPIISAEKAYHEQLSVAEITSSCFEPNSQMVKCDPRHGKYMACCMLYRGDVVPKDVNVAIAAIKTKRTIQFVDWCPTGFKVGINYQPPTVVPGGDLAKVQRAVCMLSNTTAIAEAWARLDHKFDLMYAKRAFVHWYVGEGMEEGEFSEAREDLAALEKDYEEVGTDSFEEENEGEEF
UniProt P61088: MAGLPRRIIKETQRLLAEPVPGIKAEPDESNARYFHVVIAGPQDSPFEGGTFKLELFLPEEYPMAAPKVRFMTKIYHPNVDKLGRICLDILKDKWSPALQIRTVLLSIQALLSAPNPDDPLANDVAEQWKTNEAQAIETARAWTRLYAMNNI
UniProt Q9GZZ9, whole entry, looked up: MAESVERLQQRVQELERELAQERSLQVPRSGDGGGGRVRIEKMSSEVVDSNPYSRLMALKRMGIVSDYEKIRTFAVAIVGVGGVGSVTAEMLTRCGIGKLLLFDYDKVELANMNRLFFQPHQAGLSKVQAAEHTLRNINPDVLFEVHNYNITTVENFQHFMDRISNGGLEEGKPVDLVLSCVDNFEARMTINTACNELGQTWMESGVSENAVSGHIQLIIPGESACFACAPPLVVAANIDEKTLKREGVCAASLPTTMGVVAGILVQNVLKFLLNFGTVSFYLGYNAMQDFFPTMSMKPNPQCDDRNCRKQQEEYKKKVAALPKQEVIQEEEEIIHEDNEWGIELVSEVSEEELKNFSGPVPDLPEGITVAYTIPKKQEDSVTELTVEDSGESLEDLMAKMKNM
UniProt P62256: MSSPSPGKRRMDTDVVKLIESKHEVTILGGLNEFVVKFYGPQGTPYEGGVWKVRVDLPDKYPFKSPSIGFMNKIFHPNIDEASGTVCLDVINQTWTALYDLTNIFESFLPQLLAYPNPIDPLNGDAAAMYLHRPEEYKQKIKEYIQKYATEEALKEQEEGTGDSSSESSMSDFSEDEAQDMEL
UniProt Q12792, whole entry, looked up: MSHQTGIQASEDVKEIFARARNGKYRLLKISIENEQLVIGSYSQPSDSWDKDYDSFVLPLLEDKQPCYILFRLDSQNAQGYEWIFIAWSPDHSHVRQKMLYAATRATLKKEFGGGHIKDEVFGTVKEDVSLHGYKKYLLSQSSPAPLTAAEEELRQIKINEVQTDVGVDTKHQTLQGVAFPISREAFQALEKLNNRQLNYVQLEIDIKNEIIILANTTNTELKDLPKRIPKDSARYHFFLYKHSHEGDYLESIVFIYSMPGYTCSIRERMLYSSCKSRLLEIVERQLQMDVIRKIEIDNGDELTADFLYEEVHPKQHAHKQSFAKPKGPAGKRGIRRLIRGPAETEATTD
UniProt Q13509, whole entry, looked up: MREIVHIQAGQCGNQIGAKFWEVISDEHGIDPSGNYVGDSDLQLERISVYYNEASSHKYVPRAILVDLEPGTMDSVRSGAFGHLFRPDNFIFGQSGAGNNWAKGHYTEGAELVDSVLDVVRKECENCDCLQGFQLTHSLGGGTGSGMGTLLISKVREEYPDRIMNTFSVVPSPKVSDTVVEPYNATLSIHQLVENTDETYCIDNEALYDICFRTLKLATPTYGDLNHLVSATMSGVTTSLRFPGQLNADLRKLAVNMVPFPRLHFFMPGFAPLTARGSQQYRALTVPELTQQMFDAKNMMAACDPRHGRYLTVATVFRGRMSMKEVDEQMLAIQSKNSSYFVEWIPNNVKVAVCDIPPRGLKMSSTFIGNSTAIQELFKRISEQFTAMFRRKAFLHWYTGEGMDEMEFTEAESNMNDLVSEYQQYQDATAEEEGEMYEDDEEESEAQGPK
UniProt Q12999: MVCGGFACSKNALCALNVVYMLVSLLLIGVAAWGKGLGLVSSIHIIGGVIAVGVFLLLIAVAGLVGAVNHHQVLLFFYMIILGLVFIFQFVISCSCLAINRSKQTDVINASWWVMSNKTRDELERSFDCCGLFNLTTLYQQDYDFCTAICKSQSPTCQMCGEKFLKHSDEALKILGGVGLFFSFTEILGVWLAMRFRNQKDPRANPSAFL
UniProt Q969E8: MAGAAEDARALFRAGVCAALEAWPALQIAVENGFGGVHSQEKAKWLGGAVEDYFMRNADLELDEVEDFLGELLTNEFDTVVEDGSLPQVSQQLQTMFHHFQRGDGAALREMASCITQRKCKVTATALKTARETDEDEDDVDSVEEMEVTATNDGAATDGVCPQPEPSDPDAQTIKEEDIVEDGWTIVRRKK
UniProt O95881: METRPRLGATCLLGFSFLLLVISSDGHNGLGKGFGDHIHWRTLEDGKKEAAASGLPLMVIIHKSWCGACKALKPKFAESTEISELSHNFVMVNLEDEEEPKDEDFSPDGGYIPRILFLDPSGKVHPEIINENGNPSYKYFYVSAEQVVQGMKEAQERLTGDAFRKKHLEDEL
UniProt Q86VQ3: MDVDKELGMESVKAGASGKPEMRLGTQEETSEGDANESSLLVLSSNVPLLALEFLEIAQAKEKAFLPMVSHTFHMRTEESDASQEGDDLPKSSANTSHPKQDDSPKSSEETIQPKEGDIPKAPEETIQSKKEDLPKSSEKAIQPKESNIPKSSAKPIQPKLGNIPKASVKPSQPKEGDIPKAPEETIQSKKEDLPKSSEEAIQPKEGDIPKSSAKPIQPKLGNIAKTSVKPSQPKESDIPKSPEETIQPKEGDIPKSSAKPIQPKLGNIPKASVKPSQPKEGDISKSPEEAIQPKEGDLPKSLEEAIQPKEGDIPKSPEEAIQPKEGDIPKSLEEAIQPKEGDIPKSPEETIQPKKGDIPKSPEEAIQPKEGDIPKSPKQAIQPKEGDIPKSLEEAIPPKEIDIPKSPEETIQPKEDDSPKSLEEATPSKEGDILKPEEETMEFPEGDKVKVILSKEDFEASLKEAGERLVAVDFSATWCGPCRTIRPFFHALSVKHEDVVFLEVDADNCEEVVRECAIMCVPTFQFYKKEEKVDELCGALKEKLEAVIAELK

Compound: c1cn2cc(-c3ccc4cn[nH]c4c3)nc(Nc3ccc(N4CCOCC4)cc3)c2n1 [entospletinib]
Test: log2 fold change, soluble protein after heating vs DMSO (PISA); higher = thermal stabilisation; K562 cells, 10 uM, 30 min; active = over 0.2 and 3.5 SD of the protein, either way, in both replicates (recomputed)
Outline: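 For each measurement, 10 μM compound was applied for 30 min to K562 cells at 2×10^6 cells/mL. Aliquots were heated for 3 min across 48°C-58°C, pooled, and extracted in PBS with 0.5% NP-40 at 4°C; the supernatant after 21,000xg for 90 min was soluble protein. This was quantified by TMTpro 16plex LC-MS/MS with channel sums equalised, and thermal stability was reported relative to control samples from duplicates, on a log2 fold-change scale.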

log2 fold change, inactive:
TUT7 (UniProt Q5VYS8) -0.016
TSNAX (UniProt Q99598) 0.035
U2SURP (UniProt O15042) -0.041
TUSC3 isoform 2 (UniProt Q13454) -0.042
TTC17 (UniProt Q96AE7) -0.019
TYW3 (UniProt Q6IPR3) -0.028
TUBB (UniProt P07437) -0.001
TUBG1 (UniProt P23258) 0.02
UBE2M (UniProt P61081) 0.009
TUBGCP5 (UniProt Q96RT8) 0.134
TXNDC9 (UniProt O14530) 0.078
TTC12 isoform 2 (UniProt Q9H892) 0.031
TUBA8 (UniProt Q9NY65) 0.024
TSTA3 (UniProt Q13630) -0.021
UBE2N (UniProt P61088) -0.02
UBA5 (UniProt Q9GZZ9) 0.038
TTC37 (UniProt Q6PGP7) -0.034
TUBB6 (UniProt Q9BUF5) 0.019
UBE2H (UniProt P62256) -0.032
UBE2Z (UniProt Q9H832) -0.013
TSPO (UniProt P30536) -0.011
TWF1 (UniProt Q12792) 0.099
TUBB3 (UniProt Q13509) -0.002
TUBB6 (UniProt K7ES63) -0.066
UBE2A (UniProt P49459) 0.077
TSPAN31 (UniProt Q12999) -0.045
TSR2 (UniProt Q969E8) -0.032
TUBB2B (UniProt Q9BVA1) 0.038
TTC13 (UniProt Q8NBP0) -0.063
TXNDC11 (UniProt Q6PKC3) -0.051
TUBB2A (UniProt Q13885) -0.031
TXNDC12 (UniProt O95881) 0.05
TXNDC2 (UniProt Q86VQ3) 0.072
TUBB4A (UniProt M0QYM7) -0.004

Looked up one by one from the list above, 2 records:
log2 fold change, inactive:
U2SURP (UniProt O15042) -0.041
TSTA3 (UniProt Q13630) -0.021
